Results reported in PubChem BioAssay AID1347423 (Functional Genomics Laboratory (NCATS/FGL), 2020).
The campaign covered roughly 52,000 sequences. About 210 (0.4%) were called active.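 How the source made its calls: active means gene whose silencing raises cell survival under the drug, median off-target-corrected z-score across its silencing RNAs 2 or more; inactive means the rest.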 The list shows a part of the results.

Test: Resistance to Poly (ADP-Ribose) Polymerase inhibitor: Gene Identification via Genome-wide siRNA Screen
Settings: mouse BRCA2 R2336H ES cells, olaparib, CellTiter-Glo viability; hits give high values
How it was run: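 Genome-wide siRNA screen (3 siRNAs/gene, 20 nM) in mouse ES cells carrying hypomorphic BRCA2 R2336H; olaparib 500 nM added 48 h post-transfection, CellTiter-Glo viability 72 h later. Normalized to plate-median negative control; MAD z-scores, gene median, seed-adjusted.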

Row | Sequence | z-score
1 | GGAUGUGAACCUAAGUACUTT against Nup107 | inactive: -1.76
2 | GCAGAUAUUUUUGUAAGCATT against Csmd1 | inactive: -0.975
3 | GGUGGAUCUUCCUCAAAGUTT against 0610041B22Rik | inactive: -0.832
4 | GGCGAACAGAGAGAGUUAGTT against 4921524J17Rik | inactive: 2.08
5 | CGAUGUAAGGAAAGAAAGGTT against Cd14 | inactive: -0.317
6 | GGGCAUAUGAGAUUUAUUATT against Trappc2 | inactive: 0.78
7 | GGACAUCAAAGAAAAGUCATT against Gpr171 | inactive: -0.0204
8 | GGCAAUGCCACAUUUAGAUTT against Gprc2a | inactive: -0.477
9 | GCCAUAGCUAUUGUCAUUCTT against Mmp16 | inactive: 1.66
10 | CCAUCCUAAGCAGAGUCACTT against MGC73851 | inactive: 0.953
11 | GGGCAUCUACUUUAAACUCTT against Mgat3 | inactive: 1.28
12 | GCAGAAGUCUCGUAUCCAGTT against Arl6ip4 | inactive: 1.89
13 | CCAUUAUAACACCUAUGCATT against Fgf7 | inactive: -0.358
14 | GCAGAUGCUGGUUUAAACATT against Za20d2 | inactive: 3.22
15 | GGUAGUUCUGAAAAAGAAGTT against Slc7a11 | inactive: -1.4
16 | CCUUUAAACUUCAAGAAGCTT against Btk | inactive: -0.0971
17 | GGGCAAUGGGUGAUCUAAUTT against Rpel1 | inactive: -1.06
18 | GCGAUACCGUUCUCUGUACTT against MGC58608 | inactive: -1.04
19 | GGAAGUUCCUCUCUACUUATT against Col8a2 | inactive: -0.542
20 | GGACAGAGUUCGAUCGACUTT against BC021523 | inactive: -0.107
21 | GGGCCUUGUACUUCACUUGTT against Crsp3 | inactive: -1.71
22 | GGGACAAUGUACAUCUACUTT against E230019M04 | inactive: -1.54
23 | GGCCCAACACCUUUAUCAUTT against Akt1 | inactive: 0.692
24 | GGAAGGCCGCAUACUGAUGTT against Scgn | inactive: 0.256
25 | GGACACUUCUUAUGAUGACTT against Nrf1 | inactive: -1.17
26 | GGCUGGAUGUCAGAUUGCATT against Olfr1389 | inactive: -0.831
27 | GGCAGCCUAUAUAUACUCATT against 4921521K07Rik | inactive: -0.27
28 | CGCACAGGUCAUUCUCGUGTT against Rab3b | inactive: 1.1
29 | GGAAAUCAAAGCUUUUGAGTT against Plaa | inactive: -0.318

Copied from the list.
For z-score, CGCACAGGUCAUUCUCGUGTT against Rab3b has the entry inactive: 1.1
For z-score, GGAAGUUCCUCUCUACUUATT against Col8a2 has the entry inactive: -0.542
